Measured values taken from patent US20240182513A1, “SEPARATION OF METAL IONS FROM A SAMPLE USING GLYCOLIPIDS” (ARIZONA BOARD OF REGENTS ON BEHALF OF THE UNIVERSITY OF …, priority 2021, published 2024).

Assay: Example 2.2 glycolipid facilitated chemical precipitation: lanthanum
Details: La^3+-xylolipid reactions, no further treatment
Method: Nine different structural variants were selected to examine the effect of the headgroup and number and length of the hydrophobic tail(s) on glycolipids as a chemical precipitant (Table 6). These solutions were made in advance and stored at 4° C. for up to one month and brought to room temperature (˜25° C.) before each experiment.
Each metal (Pb^2+, La^3+, and Mg^2+) was evaluated separately with each of the nine glycolipids. […] The reactions were mixed in the order of nanopure water (≥18 MΩ-cm), glycolipid solution, then metal solution. The metal and glycolipid solutions were continuously stirred as they were aliquoted into the reaction tubes. All experiments were performed in triplicate.
The reaction tubes were rotated overnight (16 to 24 h) and then three samples were collected from each tube to measure metal removal from solution: (1) no further treatment; (2) an additional filtration step; and (3) an additional centrifugation step. Briefly, for the glycolipid adsorption treatment samples all tubes were vortexed for approximately 5 sec immediately before sampling to ensure that non-adsorbed glycolipid-metal complexes were mixed into the solution column. After mixing, 0.1 ml of the reaction solution was aliquoted into a dilution tube of 2% trace metal grade nitric acid for analysis. […]
Samples for the filtration treatment were vortexed for 5 sec, then a 0.6 ml aliquot was collected with a 1 ml syringe. […] Following collection, the metal content in all samples was analyzed at the Arizona Laboratory for Emerging Contaminants (ALEC) at the University of Arizona using inductively coupled plasma mass spectrometry.
R was determined by comparing the solution metal concentration of the treatment sample (Cnt for the glycolipid with no further treatment sample, Cf for the glycolipid and filtration sample, and Cc for the glycolipid and centrifugation sample) to the solution metal concentration of a glycolipid-free control (Ci) that underwent the same handling and processing steps. […]

| Compound | visual observation of precipitation (all molar ratios) | visual observation of precipitation (2:1 ratio) | visual observation of precipitation (5:1 and 10:1 ratios) |
| --- | --- | --- | --- |
| CCCCCCCCCCCC(CC(=O)O)OC1OC[C@@H](O)[C@H](O)[C@H]1O (stereo partly drawn) [Xyl-C14] | clear solution | – | – |
| CCCCCCCCCCCC(CC(=O)O)OC(=O)CC(CCCCCCCCCCC)OC1OC[C@@H](O)[C@H](O)[C@H]1O (stereo partly drawn) [Xyl-C14-C14] | – | clear solution | precipitation on the reaction tube surfaces |
